In the test the target is T1, soluble CD39 in samples from human patients (human) (UniProt P49961).
T1 sequence: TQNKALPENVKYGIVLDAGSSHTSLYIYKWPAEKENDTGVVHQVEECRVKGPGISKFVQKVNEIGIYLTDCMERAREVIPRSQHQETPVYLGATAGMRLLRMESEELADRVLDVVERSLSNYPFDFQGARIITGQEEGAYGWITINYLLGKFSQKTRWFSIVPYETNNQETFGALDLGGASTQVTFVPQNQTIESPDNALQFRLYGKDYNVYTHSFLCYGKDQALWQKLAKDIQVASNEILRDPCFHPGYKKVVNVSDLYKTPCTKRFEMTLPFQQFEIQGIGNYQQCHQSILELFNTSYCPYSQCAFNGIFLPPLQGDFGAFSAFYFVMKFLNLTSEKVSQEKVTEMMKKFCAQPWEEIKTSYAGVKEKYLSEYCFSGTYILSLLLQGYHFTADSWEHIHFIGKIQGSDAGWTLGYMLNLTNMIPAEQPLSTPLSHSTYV
Kind of test: free soluble CD39 sandwich ELISA on patients' samples (capture antibody competes with IPH5201). A general note: In an ELISA, binding on a coated surface is turned into a signal by an enzyme label.

Results are given in words; binding and its absence hold for the method and conditions named. Some entries that bind do so weakly or less than the wild type.

B1: IPH5201 (humanized anti-CD39 antibody having the respective heavy and light chain amino acid sequences of SEQ ID NOS: 10 and 11) (antibody, human IgG1, kappa, V domains shown)
VH: QVQLVQSGAEVKKPGASVKVSCKASGYTFTDYNMHWVRQAPGQRLEWIGYIVPLNGGSTFNQKFKGRATITVDTSARTAYMELSSLRSEDTAVYYCARGGTRFAYWGQGTLVTVSS
VL: DIVMTQSPDSLAVSLGERATINCRASESVDNFGVSFMYWFQQKPGQPPKLLIYGASNQGSGVPDRFSGSGSGTDFTLTISSLQAEDVAVYYCQQTKEVPYTFGGGTKVEIKR
As for B1, the binding result was “binds”.
